Taken from: PubChem BioAssay AID504791 (Drosophila RNAi Screening Center, 2011)

Purpose: 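Genes whose knock-down strengthens or weakens small-RNA reporter silencing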 (primary screen)
Cell system: Drosophila S2-derived reporter cells
Reagent: long dsRNA against Drosophila genes, about 150-250 ng dsRNA per well (siRNA assay); about 80-120 ng (miRNA assay)
Time to read-out: about 5 days (siRNA assay); about 4 days (miRNA assay)
Challenge: copper sulfate induction of reporters: 25 µM (siRNA assay); 200 mM stated (miRNA assay), 1-2 days before reading
Read-out: 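Dual luciferase assay: Renilla to firefly signal ratio in each well, scaled to the mean ratio of its plate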
Units: stable assay Renilla, run 1 in luminescence; stable assay firefly, run 1 in luminescence
Hit rule: 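First-pass picks had plate-scaled ratios over 1.5 for the siRNA assay, over 1.6 for the miRNA assay, or under 0.6; two distinct dsRNAs had to score alike on retest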
The screen tested about 23,000 reagents; shown is a random part of those with a known target gene and a result. In the full data, 199 (0.86%) got an active call. 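Plate-scaled ratios behind the calls are not deposited; printed light signals are raw; many rows marked increased or decreased are still called inactive.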 A number with no mark means an inactive call. A plus sign joins genes that one reagent is predicted to hit. Not stated in the record: the direction of the score.

Knock-down of Nplp1 (Neuropeptide-like precursor 1) [SID104184162] resulted in: stable assay Renilla, run 1 = 17418; stable assay firefly, run 1 = 1.09e6. With knock-down of CG32830 (retired record) [SID104180954] the results were stable assay Renilla, run 1 = 4200; stable assay firefly, run 1 = 3.08e5. After knock-down of CG32830 (retired record) [SID104202508], the record shows stable assay Renilla, run 1 = 4080; stable assay firefly, run 1 = 2.91e5. CG32511 (retired record) [SID104200489] gave stable assay Renilla, run 1 = 4672; stable assay firefly, run 1 = 4.95e5. Against CG5199 [SID104191562] the deposit lists stable assay Renilla, run 1 = 8019; stable assay firefly, run 1 = 4.35e5. CG6790 [SID104195909] gave stable assay Renilla, run 1 = 8328; stable assay firefly, run 1 = 6.15e5.

After knock-down of TTLL15 (Tubulin tyrosine ligase-like 15) [SID104195335], the record shows stable assay Renilla, run 1 = 7047; stable assay firefly, run 1 = 3.40e5. With knock-down of NAAT1 (Nutrient Amino Acid Transporter 1) [SID104198092], the record shows stable assay Renilla, run 1 = 6184; stable assay firefly, run 1 = 4.88e5. CG11658 [SID104189644] gave stable assay Renilla, run 1 = 6143; stable assay firefly, run 1 = 3.42e5.

A stretch taken from the entries so far, for reference:
CG32511 (retired record) [SID104200489] — stable assay Renilla, run 1: 4672; stable assay firefly, run 1: 4.95e5
CG5199 [SID104191562] — stable assay Renilla, run 1: 8019; stable assay firefly, run 1: 4.35e5
CG6790 [SID104195909] — stable assay Renilla, run 1: 8328; stable assay firefly, run 1: 6.15e5

The list goes on:
For Bap55 (Brahma associated protein 55kD) [SID104186792], the values are stable siRNA reporter change reporter ratio lowered past the hit cutoff; stable assay Renilla, run 1 = 8850; stable assay firefly, run 1 = 6.51e5. Rab9D + Rab9Fa + Rab9E [SID104199645] gave stable assay Renilla, run 1 = 5983; stable assay firefly, run 1 = 4.83e5. After knock-down of CG11594 [SID104187999] the results were stable assay Renilla, run 1 = 7631; stable assay firefly, run 1 = 4.10e5. With knock-down of x16 (x16 splicing factor) [SID104180752], the record shows stable assay Renilla, run 1 = 5002; stable assay firefly, run 1 = 3.89e5. With knock-down of x16 (x16 splicing factor) [SID104183430], the screen gave stable assay Renilla, run 1 = 11229; stable assay firefly, run 1 = 8.10e5. With knock-down of CG10550 [SID104194043] the results were stable assay Renilla, run 1 = 7649; stable assay firefly, run 1 = 4.49e5.

Silencing of garz (gartenzwerg) [SID104186985] came out at: stable assay Renilla, run 1 = 4411; stable assay firefly, run 1 = 2.63e5. After knock-down of CG11030 [SID104181912] the results were stable assay Renilla, run 1 = 7590; stable assay firefly, run 1 = 2.93e5. With knock-down of RnrS (Ribonucleoside diphosphate reductase small subunit) [SID104187325], the record shows stable assay Renilla, run 1 = 7139; stable assay firefly, run 1 = 4.15e5. For CG14913 [SID104182189], the values are stable assay Renilla, run 1 = 8045; stable assay firefly, run 1 = 3.97e5.
